Test results as given in article PMC10247778, “PXL1 and SERKs act as receptor–coreceptor complexes for the CLE19 peptide to regulate pollen development” (Nature Communications, 2023).
These are yes or no findings as the source states them, for the method shown. Binding seen in cells or lysates may run through a third protein. Where a sequence is shown, tags or fusion partners need not be part of it.

T1: BAK1^∆KD-GFP (SERK3/BAK1 with kinase domain deletion, GFP-tagged) (Arabidopsis) (UniProt Q94F62)
T1 sequence: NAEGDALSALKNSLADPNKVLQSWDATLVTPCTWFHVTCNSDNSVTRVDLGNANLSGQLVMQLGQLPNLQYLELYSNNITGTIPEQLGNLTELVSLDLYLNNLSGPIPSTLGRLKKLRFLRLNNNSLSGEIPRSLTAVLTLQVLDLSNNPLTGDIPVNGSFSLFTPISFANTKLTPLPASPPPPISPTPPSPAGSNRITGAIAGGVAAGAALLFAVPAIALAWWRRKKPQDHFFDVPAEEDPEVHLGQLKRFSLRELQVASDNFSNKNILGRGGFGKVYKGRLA

T2: SERK1^∆KD-GFP (SERK1 with kinase domain deletion, GFP-tagged) (Arabidopsis) (UniProt Q94AG2)
T2 sequence: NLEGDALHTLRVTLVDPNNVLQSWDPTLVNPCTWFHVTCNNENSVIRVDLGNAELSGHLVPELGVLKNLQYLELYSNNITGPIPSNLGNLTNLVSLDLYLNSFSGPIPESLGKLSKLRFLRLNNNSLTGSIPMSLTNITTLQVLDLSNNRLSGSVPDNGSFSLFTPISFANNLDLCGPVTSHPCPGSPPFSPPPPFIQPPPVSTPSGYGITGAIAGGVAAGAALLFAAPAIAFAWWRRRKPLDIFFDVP

T3: SERK2^∆KD-GFP (SERK2 with kinase domain deletion, GFP-tagged) (Arabidopsis) (UniProt Q9XIC7)
T3 sequence: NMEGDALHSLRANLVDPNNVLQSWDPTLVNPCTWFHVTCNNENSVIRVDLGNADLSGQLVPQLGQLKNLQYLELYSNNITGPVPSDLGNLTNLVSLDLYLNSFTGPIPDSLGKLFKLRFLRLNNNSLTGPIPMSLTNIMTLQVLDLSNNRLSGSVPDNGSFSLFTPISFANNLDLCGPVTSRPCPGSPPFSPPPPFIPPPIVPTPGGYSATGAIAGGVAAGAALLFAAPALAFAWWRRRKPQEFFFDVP


Columns and labels:
Experiment in all cases: co-IP; MYC-tagged receptor ∆KD and GFP-tagged SERK ∆KD coexpressed in N. benthamiana leaves; CLE19 (20 μm) infiltrated 3-4 h before; GFP-Trap beads, 4 °C, 4 h; anti-Myc blot
[1] = target: T1, BAK1^∆KD-GFP (SERK3/BAK1 with kinase domain deletion, GFP-tagged) (Arabidopsis)
[2] = target: T2, SERK1^∆KD-GFP (SERK1 with kinase domain deletion, GFP-tagged) (Arabidopsis)
[3] = target: T3, SERK2^∆KD-GFP (SERK2 with kinase domain deletion, GFP-tagged) (Arabidopsis)

Row | binding [1] | binding [2] | binding [3] | Binder
1 | no binding | no binding | no binding | PXL1^R417AR419A∆KD-MYC (domain or fragment, UniProt Q9FRS6 24-713) ETFQNSEQEILLAFKSDLFDPSNNLQDWKRPENATTFSELVHCHWTGVHCDANGYVAKLLLSNMNLSGNVSDQIQSFPSLQALDLSNNAFESSLPKSLSNLTSLKVIDVSVNSFFGTFPYGLGMATGLTHVNASSNNFSGFLPEDLGNATTLEVLDFRGGYFEGSVPSSFKNLKNLKFLGLSGNNFGGKVPKVIGELSSLETIILGYNGFMGEIPEEFGKLTRLQYLDLAVGNLTGQIPSSLGQLKQLTTVYLYQNRLTGKLPRELGGMTSLVFLDLSDNQITGEIPMEVGELKNLQLLNLMRNQLTGIIPSKIAELPNLEVLELWQNSLMGSLPVHLGKNSPLKWLDVSSNKLSGDIPSGLCYSRNLTKLILFNNSFSGQIPEEIFSCPTLVAVAIQKNHISGSIPAGSGDLPMLQHLELAKNNLTGKIPDDIALSTSLSFIDISFNHLSSLSSSIFSSPNLQTFIASHNNFAGKIPNQIQDRPSLSVLDLSFNHFSGGIPERIASFEKLVSLNLKSNQLVGEIPKALAGMHMLAVLDLSNNSLTGNIPADLGASPTLEMLNVSFNKLDGPIPSNMLFAAIDPKDLVGNNGLCGGVLPPCSKSLALSAKGRNPGRIHVNHAVFGFIVGTSVIVAMGMMFLAGRWIYTRWDLYSNFAREYIFCKKPREEWPWRLVAFQRLCFTAGDILSH
2 | no binding | no binding | no binding | PXY^∆KD-MYC (PXY with kinase domain deletion, MYC-tagged) (domain or fragment, UniProt Q9FII5 30-718) LKFSPQLLSLLSLKTSLSGPPSAFQDWKVPVNGQNDAVWCSWSGVVCDNVTAQVISLDLSHRNLSGRIPIQIRYLSSLLYLNLSGNSLEGSFPTSIFDLTKLTTLDISRNSFDSSFPPGISKLKFLKVFNAFSNNFEGLLPSDVSRLRFLEELNFGGSYFEGEIPAAYGGLQRLKFIHLAGNVLGGKLPPRLGLLTELQHMEIGYNHFNGNIPSEFALLSNLKYFDVSNCSLSGSLPQELGNLSNLETLFLFQNGFTGEIPESYSNLKSLKLLDFSSNQLSGSIPSGFSTLKNLTWLSLISNNLSGEVPEGIGELPELTTLFLWNNNFTGVLPHKLGSNGKLETMDVSNNSFTGTIPSSLCHGNKLYKLILFSNMFEGELPKSLTRCESLWRFRSQNNRLNGTIPIGFGSLRNLTFVDLSNNRFTDQIPADFATAPVLQYLNLSTNFFHRKLPENIWKAPNLQIFSASFSNLIGEIPNYVGCKSFYRIELQGNSLNGTIPWDIGHCEKLLCLNLSQNHLNGIIPWEISTLPSIADVDLSHNLLTGTIPSDFGSSKTITTFNVSYNQLIGPIPSGSFAHLNPSFFSSNEGLCGDLVGKPCNSDRFNAGNADIDGHHKEERPKKTAGAIVWILAAAIGVGFFVLVAATRCFQKSYGNRVDGGGRNGGDIGPWKLTAFQRLNFTADDVVECL
